Data from doi:10.1101/2023.01.27.525886 (bioRxiv, 2023).
Read-outs that look alike come from different tables or passages of the source. These are yes or no findings as the source states them, for the method shown. For part of these data: In cells and extracts the contact can be indirect. Some entries that bind do so weakly or less than the wild type.

How the values were obtained:
[1] = target: T1, Vtc3(Δlp) (S. cerevisiae) (UniProt Q02725); test: affinity co-purification of the endogenous complex
T1 sequence: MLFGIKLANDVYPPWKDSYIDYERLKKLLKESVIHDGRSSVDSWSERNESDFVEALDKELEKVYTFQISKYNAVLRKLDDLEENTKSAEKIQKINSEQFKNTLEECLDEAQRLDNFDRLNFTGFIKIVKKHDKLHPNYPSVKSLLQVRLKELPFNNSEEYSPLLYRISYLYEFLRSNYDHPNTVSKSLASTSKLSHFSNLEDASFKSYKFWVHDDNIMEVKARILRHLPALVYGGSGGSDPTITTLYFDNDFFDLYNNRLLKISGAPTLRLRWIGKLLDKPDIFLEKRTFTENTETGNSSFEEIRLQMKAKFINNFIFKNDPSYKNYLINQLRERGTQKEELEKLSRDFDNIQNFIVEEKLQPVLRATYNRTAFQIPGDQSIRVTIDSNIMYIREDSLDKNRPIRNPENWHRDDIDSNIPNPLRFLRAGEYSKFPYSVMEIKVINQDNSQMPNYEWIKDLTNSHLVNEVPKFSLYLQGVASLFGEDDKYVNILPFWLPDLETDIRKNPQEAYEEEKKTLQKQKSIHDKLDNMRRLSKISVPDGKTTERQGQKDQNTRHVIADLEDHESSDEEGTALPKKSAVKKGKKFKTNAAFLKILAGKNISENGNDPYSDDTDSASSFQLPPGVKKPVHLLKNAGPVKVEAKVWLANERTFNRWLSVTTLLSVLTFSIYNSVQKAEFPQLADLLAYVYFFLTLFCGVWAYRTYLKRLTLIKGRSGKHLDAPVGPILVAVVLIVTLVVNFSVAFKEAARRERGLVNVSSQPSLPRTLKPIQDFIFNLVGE

[2] = target: T2, Vtc2-TAPm (S. cerevisiae) (UniProt P43585); test: affinity co-purification of the endogenous complex
T2 sequence: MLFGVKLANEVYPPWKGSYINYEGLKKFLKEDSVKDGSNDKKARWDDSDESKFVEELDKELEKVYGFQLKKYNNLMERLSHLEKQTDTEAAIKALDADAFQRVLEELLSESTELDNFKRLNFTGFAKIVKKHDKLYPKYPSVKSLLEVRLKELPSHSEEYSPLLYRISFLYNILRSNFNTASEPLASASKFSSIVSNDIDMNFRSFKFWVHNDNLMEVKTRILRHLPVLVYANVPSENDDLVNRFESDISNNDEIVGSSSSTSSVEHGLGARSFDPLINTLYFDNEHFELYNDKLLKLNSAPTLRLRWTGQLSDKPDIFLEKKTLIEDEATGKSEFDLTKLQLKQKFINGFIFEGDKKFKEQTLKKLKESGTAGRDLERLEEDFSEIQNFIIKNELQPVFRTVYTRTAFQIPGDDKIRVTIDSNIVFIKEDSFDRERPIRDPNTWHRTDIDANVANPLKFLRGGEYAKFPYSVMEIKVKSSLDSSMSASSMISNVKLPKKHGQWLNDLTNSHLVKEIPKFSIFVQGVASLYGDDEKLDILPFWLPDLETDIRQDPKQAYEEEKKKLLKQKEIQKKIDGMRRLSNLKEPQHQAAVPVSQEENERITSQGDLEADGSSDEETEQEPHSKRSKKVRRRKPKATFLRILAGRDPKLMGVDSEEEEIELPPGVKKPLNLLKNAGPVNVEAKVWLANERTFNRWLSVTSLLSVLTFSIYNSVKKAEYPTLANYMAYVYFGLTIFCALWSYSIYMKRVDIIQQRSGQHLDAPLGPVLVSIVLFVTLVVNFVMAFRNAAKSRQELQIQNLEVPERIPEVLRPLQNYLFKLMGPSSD

[3] = target: T1, Vtc3(Δlp) (S. cerevisiae); test: affinity co-purification of the endogenous complex; remark: listed apart in the source
[4] = target: T2, Vtc2-TAPm (S. cerevisiae); test: affinity co-purification of the endogenous complex; remark: listed apart in the source
[5] = target: T2, Vtc2-TAPm (S. cerevisiae); test: co-IP
Vtc3-TAPm = target: T3, Vtc3-TAPm (S. cerevisiae, UniProt Q02725 1-835); test: co-IP
T3 sequence: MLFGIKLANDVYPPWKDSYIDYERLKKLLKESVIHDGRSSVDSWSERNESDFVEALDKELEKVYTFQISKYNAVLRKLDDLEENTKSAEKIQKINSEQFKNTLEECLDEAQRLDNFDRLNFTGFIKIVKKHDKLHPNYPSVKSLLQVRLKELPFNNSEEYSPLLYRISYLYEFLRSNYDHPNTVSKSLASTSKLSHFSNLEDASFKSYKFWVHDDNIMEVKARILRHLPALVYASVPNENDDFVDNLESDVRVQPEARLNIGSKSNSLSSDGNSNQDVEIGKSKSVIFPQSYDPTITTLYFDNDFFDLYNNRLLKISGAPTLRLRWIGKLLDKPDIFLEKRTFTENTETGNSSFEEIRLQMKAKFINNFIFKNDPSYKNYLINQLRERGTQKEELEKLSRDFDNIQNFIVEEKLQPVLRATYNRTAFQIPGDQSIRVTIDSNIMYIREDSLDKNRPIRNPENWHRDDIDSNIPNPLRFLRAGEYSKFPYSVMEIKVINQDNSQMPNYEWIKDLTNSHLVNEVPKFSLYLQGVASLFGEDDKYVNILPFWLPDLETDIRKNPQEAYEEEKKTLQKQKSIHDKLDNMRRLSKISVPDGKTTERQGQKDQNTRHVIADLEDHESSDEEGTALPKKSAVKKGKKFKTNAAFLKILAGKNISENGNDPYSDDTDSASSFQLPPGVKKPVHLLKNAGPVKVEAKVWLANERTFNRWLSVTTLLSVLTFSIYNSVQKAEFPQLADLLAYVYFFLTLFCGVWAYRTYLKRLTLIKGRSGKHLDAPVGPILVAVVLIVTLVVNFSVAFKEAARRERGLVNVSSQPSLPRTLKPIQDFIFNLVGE

B1: Vtc4 (natural protein)
chain: MKFGEHLSKSLIRQYSYYYISYDDLKTELEDNLSKNNGQWTQELETDFLESLEIELDKVYTFCKVKHSEVFRRVKEVQEQVQHTVRLLDSNNPPTQLDFEILEEELSDIIADVHDLAKFSRLNYTGFQKIIKKHDKKTGFILKPVFQVRLDSKPFFKENYDELVVKISQLYDIARTSGRPIKGDSSAGGKQQNFVRQTTKYWVHPDNITELKLIILKHLPVLVFNTNKEFEREDSAITSIYFDNENLDLYYGRLRKDEGAEAHRLRWYGGMSTDTIFVERKTHREDWTGEKSVKARFALKERHVNDFLKGKYTVDQVFAKMRKEGKKPMNEIENLEALASEIQYVMLKKKLRPVVRSFYNRTAFQLPGDARVRISLDTELTMVREDNFDGVDRTHKNWRRTDIGVDWPFKQLDDKDICRFPYAVLEVKLQTQLGQEPPEWVRELVGSHLVEPVPKFSKFIHGVATLLNDKVDSIPFWLPQMDVDIRKPPLPTNIEITRPGRSDNEDNDFDEDDEDDAALVAAMTNAPGNSLDIEESVGYGATSAPTSNTNHVVESANAAYYQRKIRNAENPISKKYYEIVAFFDHYFNGDQISKIPKGTTFDTQIRAPPGKTICVPVRVEPKVYFATERTYLSWLSISILLGGVSTTLLTYGSPTAMIGSIGFFITSLAVLIRTVMVYAKRVVNIRLKRAVDYEDKIGPGMVSVFLILSILFSFFCNLVAK
In the case of B1, the binding [1] is reported as “binds” and the binding [2] is reported as “binds”.

B2: Vtc1 (natural protein)
chain: MSSAPLLQRTPGKKIALPTRVEPKVFFANERTFLSWLNFTVMLGGLGVGLLNFGDKIGRVSAGLFTFVAMGTMIYALVTYHWRAAAIRRRGSGPYDDRLGPTLLCFFLLVAVIINFILRLKYNDANTKL
B2 was tested, and the binding [3] was “binds” and the binding [4] was “binds”.

B3: Vtc3-Strep (protein, UniProt Q02725 1-835)
chain: T3 sequence
With B3 the binding [5] was “no binding”.

B4: Vtc2-Strep (protein, UniProt P43585 1-828)
chain: T2 sequence
For B4, the binding (Vtc3-TAPm) was “no binding”.
